# Results: patent publication US20060193796A1, “Method for refining ultraviolet absorbent, ultraviolet absorbent and cosmetic material” (priority 2003, published 2006)
# Experiment: Odor evaluation for ultraviolet absorbers (sensory evaluation)
# Conditions: sensory score, 10 ranks: 1, no odor; 10, very intense odor
# Protocol: Odor Evaluation for Ultraviolet Absorbers Sensory evaluation of odor was performed for the ultraviolet absorbers. The intensity of overall odor and that of irritating odor were evaluated using one of 10 ranks: 1, no odor; . . .; 10, very intense odor and scored.
row,Structure (SMILES),Evaluation for ultraviolet absorber: Odor
1,"CCCCC(CC)COC(=O)C=Cc1ccc(OC)cc1 (stereo not shown) [Example 2, 2-ethylhexyl p-methoxycinnamate]",1
2,"CCCCC(CC)COC(=O)C=Cc1ccc(OC)cc1 (stereo not shown) [compound 7, 2-ethylhexyl p-methoxycinnamate]",5
3,"CCCCC(CC)COC(=O)C=Cc1ccc(OC)cc1 (stereo not shown) [compound 5, 2-ethylhexyl p-methoxycinnamate]",6
4,"CCCCC(CC)COC(=O)C=Cc1ccc(OC)cc1 (stereo not shown) [compound 9, 2-ethylhexyl p-methoxycinnamate]",1
5,"CCCCC(CC)COC(=O)C=Cc1ccc(OC)cc1 (stereo not shown) [Example 4, 2-ethylhexyl p-methoxycinnamate]",1
6,"CCCCC(CC)COC(=O)C=Cc1ccc(OC)cc1 (stereo not shown) [compound 2, 2-ethylhexyl p-methoxycinnamate]",6
7,"CCCCC(CC)COC(=O)C=Cc1ccc(OC)cc1 (stereo not shown) [compound 3, 2-ethylhexyl p-methoxycinnamate]",7
8,"CCCCC(CC)COC(=O)C=Cc1ccc(OC)cc1 (stereo not shown) [compound 4, 2-ethylhexyl p-methoxycinnamate]",4
9,"CCCCC(CC)COC(=O)C=Cc1ccc(OC)cc1 (stereo not shown) [Example 1, 2-ethylhexyl p-methoxycinnamate]",1
10,"CCCCC(CC)COC(=O)C=Cc1ccc(OC)cc1 (stereo not shown) [compound 8, 2-ethylhexyl p-methoxycinnamate]",5
11,"CCCCC(CC)COC(=O)C=Cc1ccc(OC)cc1 (stereo not shown) [compound 1, 2-ethylhexyl p-methoxycinnamate]",10
12,"CCCCC(CC)COC(=O)C=Cc1ccc(OC)cc1 (stereo not shown) [Example 3, 2-ethylhexyl p-methoxycinnamate]",1
13,"CCCCC(CC)COC(=O)C=Cc1ccc(OC)cc1 (stereo not shown) [compound 6, 2-ethylhexyl p-methoxycinnamate]",5
